Results of single-concentration screens

Results are given as percent effect.
The record does not define 0% and 100%; most values in the screen are far below 50% and negative numbers occur (in some assays of this library far below -100).
The compounds are a random part of those screened.

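Assay of Toxoplasma gondii numbers, read through their beta-galactosidase reporter with a colour substrate. Tested at 50 µM. The record gives no direction; the compounds picked for IC50 retests had high values, so higher reads as fewer parasites. About 18,000 compounds were tested under these conditions; 0.94% (about 170) showed 50% or more at least once.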

| Compound | Percent Effect |
|---|---|
| `O=C(NCc1ccc2c(c1)OCO2)Nc1nccs1` | -9.702 |
| `CCCS(=O)(=O)NC1CCNC1` (stereo unspecified) | 0.2325 |
| `CN1CC(C(=O)N2CCC(c3ncc[nH]3)CC2)NC1=O` (stereo unspecified) | -12.55 |
| `O=S(=O)(NC1CNC1)c1ccco1` | -2.27 |
| `COc1ccc(CN(C)C2CCSCC2)cn1` | -8.892 |
| `Cc1cc(S(=O)(=O)N[C@@H]2CCOC[C@H]2O)n(C)n1` | 15.92 |
| `O=S(=O)(CC(O)CO)C1Cc2ccccc2C1` (stereo unspecified) | -4.051 |
| `CC(C)(O)CN1CCC(N)CC1` | 5.269 |
| `Cc1ccc(C(=O)NCCCNCCCN(C)C)cn1` | 99.75 |
| `OC1(c2scnc2Br)CCNCC1` | -7.653 |
| `COCCCC1CCCN(CCn2cncn2)C1` (stereo unspecified) | -19.84 |
| `CC(C)(C(=O)N1CCOCC1)c1ccccc1` | -4.463 |
| `CN(Cc1ccc(F)c(F)c1)C(=O)C1CCOCC1` | 0.4539 |
| `Nc1nccc(-c2cncc(F)c2)n1` | 0.8782 |
| `CCc1ccc(C(=O)CSc2nnc(N)[nH]2)cc1` | -7.535 |
| `OCCCN1CCC(=Cc2ccccc2)CC1` | 4.506 |
| `Cc1cc(CNC(=O)CCC2CCCN(C)C2)n(C)n1` (stereo unspecified) | -1.234 |
| `Cc1cc(C(=O)N2CCCCC2)c2c(C)nn(C)c2n1` | 1.837 |
| `CNC(=O)CC(C)N(C)Cc1nccn1CCOC` (stereo unspecified) | -0.7046 |
| `CCCN(CCO)Cc1nnc(CC)o1` | -2.574 |
| `CNC(=O)CNC(=O)c1ccccc1O` | -5.304 |
| `COCC1CCN(C(=O)Nc2ccc(F)c(OC)c2)C1` (stereo unspecified) | 2.618 |
| `CCC(NC(=O)CCC(=O)OC)c1ccccc1` (stereo unspecified) | -2.759 |
| `Brc1ccnc(N2CCCC(CN3CCOCC3)C2)c1` (stereo unspecified) | 8.387 |
| `CC(C)(CNCc1ccsc1)N1CCOCC1` | -5.935 |
| `Cc1noc(CN2C[C@H](C(C)C)[C@@H](N)C2)n1` | -2.997 |
| `COCCNC(=O)c1cc2cc(C)ccc2n1C` | 2.035 |
| `Cc1oc(C)c(S(N)(=O)=O)c1C(=O)Nc1ccccc1` | -1.94 |
| `COc1c(C)cnc(CSCCN2CCOCC2)c1C` | 1.272 |
| `CN(C)S(=O)(=O)CCCN1CC(C)(C)[C@@](C)(O)C1` | 3.928 |
| `Nc1nc(NCCc2c[nH]cn2)cc(C2CC(N)C2)n1` (stereo unspecified) | -7.21 |
| `Cc1ccc(C(=O)N2CCOCC2(C)C)cc1F` | -18.82 |
| `Cc1cc(Cl)ccc1NC(=O)CN1CCN(C)CC1` | -12.29 |
| `O=C(Nc1cc(F)cc(F)c1)N[C@@H]1CNCC[C@H]1O` | -5.677 |
| `CNC(=O)NC(=O)CNc1cc2c(cc1Cl)OCCO2` | -11.45 |
| `Nc1cncc(CC2CC(=O)N(c3ccccc3)C2)c1` (stereo unspecified) | -11.93 |
| `Clc1ccc(OC2CCCNC2)nc1` (stereo unspecified) | 0.1125 |
| `NS(=O)(=O)CCN1CCOC(c2ccccc2)C1` (stereo unspecified) | 31.65 |
| `c1cnc2nc(N3CCNCC3)oc2c1` | -9.379 |
| `NCc1ccc(CN2CCOCC2)o1` | -4.2 |
| `O=C(NCCc1cccs1)C1CCNCC1` | 2.537 |
| `Cc1nccn1CCCN1CCN(S(C)(=O)=O)CC1` | 13.15 |
| `CC(C)(C)[C@@H]1NC(=O)CC[C@H]1N` | -4.702 |
| `COCCN(CCOC)CC(=O)N(C)C` | 56.58 |
| `O=C(O)C1CN(Cc2ccc(CN3CCCCC3)s2)C1` | -0.257 |
| `Cc1cccc(S(=O)(=O)NC2CCCNC2)c1C#N` (stereo unspecified) | 17.73 |
| `CCNC(=O)CN(C)C(=O)COc1ccc(Cl)cc1` | 12.14 |
| `NCCNc1ccc2ccccc2n1` | -5.159 |
| `CCN(C(=O)Cc1c[nH]c(=O)[nH]c1=O)[C@H]1COC[C@@H]1O` | 7.854 |
| `CCOCCCNC(=O)NCc1c(C)nn(CC)c1C` | 15.33 |
| `Clc1ccc2c(c1)CNCCO2` | 0.02592 |
| `COCCn1ncc2c1C(N)CCC2` (stereo unspecified) | 6.696 |
| `CCCNC(=O)Cn1nc2n(c1=O)CCCCC2` | -2.651 |
| `COc1ccc(OC)c(CNc2nc(C)nn2C)c1` | -24.65 |
| `CC(C)c1ccc(O)c(C(=O)N2CCOCC2)c1` | -12.69 |
| `CCc1c(C(N)=O)cnn1-c1ccccn1` | -19.61 |
| `CC(C)(C)C(=O)NC1CCCNC1` (stereo unspecified) | 9.384 |
| `CN(C)S(=O)(=O)NCc1ccccc1CO` | 0.2627 |
| `Cc1ccc(NC(=O)N(C)C[C@H](O)CO)cc1Cl` | -9.424 |
| `COc1ccc(CN2CCN(C)C(CCO)C2)cc1` (stereo unspecified) | 12.11 |
| `CCC(C)NC(=O)N1CCCC1` (stereo unspecified) | 0.5935 |
| `CCc1ccc(C2CNCCO2)cc1` (stereo unspecified) | -21.07 |
| `CC(C)NC(=O)CNC(C)CC(=O)Nc1ccccc1` (stereo unspecified) | -6.287 |
| `O=C(NCC1CCN(C2CC2)C1)c1ccccn1` (stereo unspecified) | 11.62 |
| `CS(=O)(=O)Cc1ccccc1Br` | -11.81 |
| `CC(=O)Nc1nc(CN2CCn3ccnc3C2)cs1` | 3.375 |
| `CC(=O)Nc1ccc(C(C)N)cc1` (stereo unspecified) | -11.91 |
| `NC(CCO)c1ccc(F)cc1` (stereo unspecified) | -1.403 |
| `CSCCN1CCN(C(=O)c2cnc[nH]2)CC1` | 14.51 |
| `Cc1nc2n(n1)CCCC2N` (stereo unspecified) | 5.506 |

Repeated from the top, 8 entries:

For O=C(NCc1ccc2c(c1)OCO2)Nc1nccs1 the result was -9.702%.
For CCCS(=O)(=O)NC1CCNC1 (stereo unspecified) the result was 0.2325%.
For CN1CC(C(=O)N2CCC(c3ncc[nH]3)CC2)NC1=O (stereo unspecified) the result was -12.55%.
For O=S(=O)(NC1CNC1)c1ccco1 the result was -2.27%.
For COc1ccc(CN(C)C2CCSCC2)cn1 the result was -8.892%.
For Cc1cc(S(=O)(=O)N[C@@H]2CCOC[C@H]2O)n(C)n1 the result was 15.92%.
For O=S(=O)(CC(O)CO)C1Cc2ccccc2C1 (stereo unspecified) the result was -4.051%.
For CC(C)(O)CN1CCC(N)CC1 the result was 5.269%.

Data taken from ChEMBL document CHEMBL3988442, “University of Dundee, Small-Polar-MMV Screening Library” (2021).